Measurements reported in PubChem BioAssay AID1224830 (NIAID, 2016)

- Aim: 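Host factors that control LPS-induced TNF expression in human macrophages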 (primary screen)
- Cell system: human THP-1 monocytic leukaemia cells, TNF dual-luciferase reporter clone, PMA-differentiated to macrophage-like cells
- Reagent: siRNA pool against human genes, 50 nM
- Timing: LPS for 4 h, given about 3 days after siRNA transfection
- Treatment: bacterial LPS (TLR4 ligand), 10 ng/ml
- Measured: 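TNF firefly reporter luminescence divided by renilla, normalised to the plate median, then turned into a robust z-score for each replicate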
- Reading the numbers: TNF reporter robust z-score: higher = stronger TNF reporter response to LPS
- Rule for the call: 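Each well counts as active if its z-score is over 2.8 or under -1.5; controls are left without a call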
Shown is a random part of about 18,000 deposited reagents. About 2,900 of all reagents (16%) were called active. 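Calls are made per well; low scores hint the gene aids the LPS response, high scores that it dampens it.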 Repeated entries: four replicate wells of each siRNA pool.

{"Target gene": "OR1G1 (olfactory receptor family 1 subfamily G member 1)", "TNF reporter robust z-score": -1.4, "Call": "inactive"}
{"Target gene": "OR1G1 (olfactory receptor family 1 subfamily G member 1)", "TNF reporter robust z-score": -0.57, "Call": "inactive"}
{"Target gene": "OR1G1 (olfactory receptor family 1 subfamily G member 1)", "TNF reporter robust z-score": -1.26, "Call": "inactive"}
{"Target gene": "OR1G1 (olfactory receptor family 1 subfamily G member 1)", "TNF reporter robust z-score": -1.5, "Call": "inactive"}
{"Target gene": "PLCXD3", "TNF reporter robust z-score": 0.95, "Call": "inactive"}
{"Target gene": "PLCXD3", "TNF reporter robust z-score": 1.62, "Call": "inactive"}
{"Target gene": "PLCXD3", "TNF reporter robust z-score": 1.09, "Call": "inactive"}
{"Target gene": "PLCXD3", "TNF reporter robust z-score": 2.04, "Call": "inactive"}
{"Target gene": "XKR8 (XK related 8)", "TNF reporter robust z-score": -0.55, "Call": "inactive"}
{"Target gene": "XKR8 (XK related 8)", "TNF reporter robust z-score": 0.01, "Call": "inactive"}
{"Target gene": "XKR8 (XK related 8)", "TNF reporter robust z-score": 0, "Call": "inactive"}
{"Target gene": "MICAL1", "TNF reporter robust z-score": -0.91, "Call": "inactive"}
{"Target gene": "MICAL1", "TNF reporter robust z-score": -1.34, "Call": "inactive"}
{"Target gene": "MICAL1", "TNF reporter robust z-score": -0.87, "Call": "inactive"}
{"Target gene": "MICAL1", "TNF reporter robust z-score": -0.85, "Call": "inactive"}
{"Target gene": "IPO4 (importin 4)", "TNF reporter robust z-score": 1.57, "Call": "inactive"}
{"Target gene": "IPO4 (importin 4)", "TNF reporter robust z-score": 1.96, "Call": "inactive"}
{"Target gene": "IPO4 (importin 4)", "TNF reporter robust z-score": -0.85, "Call": "inactive"}
{"Target gene": "IPO4 (importin 4)", "TNF reporter robust z-score": -0.25, "Call": "inactive"}
{"Target gene": "GSKIP (GSK3B interacting protein)", "TNF reporter robust z-score": -1.46, "Call": "inactive"}
{"Target gene": "GSKIP (GSK3B interacting protein)", "TNF reporter robust z-score": -1.23, "Call": "inactive"}
{"Target gene": "GSKIP (GSK3B interacting protein)", "TNF reporter robust z-score": -0.81, "Call": "inactive"}
{"Target gene": "GSKIP (GSK3B interacting protein)", "TNF reporter robust z-score": -1.16, "Call": "inactive"}
{"Target gene": "TREML1 (triggering receptor expressed on myeloid cells like 1)", "TNF reporter robust z-score": -0.46, "Call": "inactive"}
{"Target gene": "TREML1 (triggering receptor expressed on myeloid cells like 1)", "TNF reporter robust z-score": 0.37, "Call": "inactive"}
{"Target gene": "TREML1 (triggering receptor expressed on myeloid cells like 1)", "TNF reporter robust z-score": -0.95, "Call": "inactive"}
{"Target gene": "TREML1 (triggering receptor expressed on myeloid cells like 1)", "TNF reporter robust z-score": -0.53, "Call": "inactive"}
{"Target gene": "CCDC88B (coiled-coil and HOOK domain protein 88B)", "TNF reporter robust z-score": 2.19, "Call": "inactive"}
{"Target gene": "CCDC88B (coiled-coil and HOOK domain protein 88B)", "TNF reporter robust z-score": 2.3, "Call": "inactive"}
{"Target gene": "CCDC88B (coiled-coil and HOOK domain protein 88B)", "TNF reporter robust z-score": 2.12, "Call": "inactive"}
{"Target gene": "CCDC88B (coiled-coil and HOOK domain protein 88B)", "TNF reporter robust z-score": 1.76, "Call": "inactive"}
{"Target gene": "EIF6 (eukaryotic translation initiation factor 6)", "TNF reporter robust z-score": 0.85, "Call": "inactive"}
{"Target gene": "EIF6 (eukaryotic translation initiation factor 6)", "TNF reporter robust z-score": 0.03, "Call": "inactive"}
{"Target gene": "EIF6 (eukaryotic translation initiation factor 6)", "TNF reporter robust z-score": -0.17, "Call": "inactive"}
{"Target gene": "EIF6 (eukaryotic translation initiation factor 6)", "TNF reporter robust z-score": 0.2, "Call": "inactive"}
{"Target gene": "PSME2 (proteasome activator subunit 2)", "TNF reporter robust z-score": -0.64, "Call": "inactive"}
{"Target gene": "PSME2 (proteasome activator subunit 2)", "TNF reporter robust z-score": 1.25, "Call": "inactive"}
{"Target gene": "PSME2 (proteasome activator subunit 2)", "TNF reporter robust z-score": 0.88, "Call": "inactive"}
{"Target gene": "PSME2 (proteasome activator subunit 2)", "TNF reporter robust z-score": 0.03, "Call": "inactive"}
{"Target gene": "DLEU7 (deleted in lymphocytic leukemia 7)", "TNF reporter robust z-score": -0.89, "Call": "inactive"}
{"Target gene": "DLEU7 (deleted in lymphocytic leukemia 7)", "TNF reporter robust z-score": -0.03, "Call": "inactive"}
{"Target gene": "DLEU7 (deleted in lymphocytic leukemia 7)", "TNF reporter robust z-score": -0.18, "Call": "inactive"}
{"Target gene": "DLEU7 (deleted in lymphocytic leukemia 7)", "TNF reporter robust z-score": -0.01, "Call": "inactive"}
{"Target gene": "VEGFA (vascular endothelial growth factor A)", "TNF reporter robust z-score": 0.61, "Call": "inactive"}
{"Target gene": "VEGFA (vascular endothelial growth factor A)", "TNF reporter robust z-score": 8.35, "Call": "active"}
{"Target gene": "VEGFA (vascular endothelial growth factor A)", "TNF reporter robust z-score": 1.97, "Call": "inactive"}
{"Target gene": "VEGFA (vascular endothelial growth factor A)", "TNF reporter robust z-score": 0.77, "Call": "inactive"}

A run of entries taken from the entries so far, for reference:
{"Target gene": "PSME2 (proteasome activator subunit 2)", "TNF reporter robust z-score": 0.03, "Call": "inactive"}
{"Target gene": "DLEU7 (deleted in lymphocytic leukemia 7)", "TNF reporter robust z-score": -0.89, "Call": "inactive"}
{"Target gene": "DLEU7 (deleted in lymphocytic leukemia 7)", "TNF reporter robust z-score": -0.03, "Call": "inactive"}
{"Target gene": "DLEU7 (deleted in lymphocytic leukemia 7)", "TNF reporter robust z-score": -0.18, "Call": "inactive"}
{"Target gene": "DLEU7 (deleted in lymphocytic leukemia 7)", "TNF reporter robust z-score": -0.01, "Call": "inactive"}
{"Target gene": "VEGFA (vascular endothelial growth factor A)", "TNF reporter robust z-score": 0.61, "Call": "inactive"}
{"Target gene": "VEGFA (vascular endothelial growth factor A)", "TNF reporter robust z-score": 8.35, "Call": "active"}
{"Target gene": "VEGFA (vascular endothelial growth factor A)", "TNF reporter robust z-score": 1.97, "Call": "inactive"}
